From paper PMC11357992, “Non-invasive mapping of systemic neutrophil dynamics upon cardiovascular injury” (Nature Cardiovascular Research, 2023)
Results are given in words; binding and its absence hold for the method and conditions named. Some binding calls cover weakened binding; strength is not graded here.

T1: human CD177 on transiently transfected CHO cells (human) (UniProt Q8N6Q3)
T1 sequence: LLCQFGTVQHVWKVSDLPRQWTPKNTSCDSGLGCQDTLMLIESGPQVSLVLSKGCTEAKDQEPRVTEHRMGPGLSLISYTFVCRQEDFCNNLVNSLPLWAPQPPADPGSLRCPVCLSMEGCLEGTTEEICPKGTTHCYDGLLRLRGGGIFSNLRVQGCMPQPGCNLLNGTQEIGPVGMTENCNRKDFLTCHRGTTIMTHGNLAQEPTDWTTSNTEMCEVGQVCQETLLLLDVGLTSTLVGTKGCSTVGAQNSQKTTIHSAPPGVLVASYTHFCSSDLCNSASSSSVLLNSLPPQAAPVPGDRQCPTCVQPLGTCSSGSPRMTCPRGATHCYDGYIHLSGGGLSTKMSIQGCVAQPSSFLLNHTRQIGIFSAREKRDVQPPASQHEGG

T2: murine CD177 on murine neutrophils (mouse (endogenous in neutrophils)) (UniProt Q8R2S8)
T2 sequence: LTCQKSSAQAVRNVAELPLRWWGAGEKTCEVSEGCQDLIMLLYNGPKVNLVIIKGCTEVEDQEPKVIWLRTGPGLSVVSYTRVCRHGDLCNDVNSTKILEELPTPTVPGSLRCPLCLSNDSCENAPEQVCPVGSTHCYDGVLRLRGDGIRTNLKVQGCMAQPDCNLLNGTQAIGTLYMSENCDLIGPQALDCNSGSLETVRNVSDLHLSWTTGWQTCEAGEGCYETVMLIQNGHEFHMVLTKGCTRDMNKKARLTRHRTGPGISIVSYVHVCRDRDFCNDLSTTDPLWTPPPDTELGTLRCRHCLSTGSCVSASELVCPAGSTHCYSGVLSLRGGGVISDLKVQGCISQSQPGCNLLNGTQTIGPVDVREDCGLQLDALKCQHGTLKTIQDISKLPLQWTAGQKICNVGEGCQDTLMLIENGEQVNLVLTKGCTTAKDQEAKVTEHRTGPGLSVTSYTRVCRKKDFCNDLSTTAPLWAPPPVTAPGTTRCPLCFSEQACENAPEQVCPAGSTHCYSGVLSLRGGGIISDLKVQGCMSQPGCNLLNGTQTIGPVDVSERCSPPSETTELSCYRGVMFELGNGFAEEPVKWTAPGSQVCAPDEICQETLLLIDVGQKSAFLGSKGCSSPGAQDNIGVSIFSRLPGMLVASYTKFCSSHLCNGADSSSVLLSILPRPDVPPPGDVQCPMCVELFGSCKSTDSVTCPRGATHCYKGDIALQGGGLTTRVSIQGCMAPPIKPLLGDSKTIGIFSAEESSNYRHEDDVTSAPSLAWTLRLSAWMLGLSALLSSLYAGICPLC


Legend:
[1] = target: T1, human CD177 on transiently transfected CHO cells (human); test: flow cytometry on cells; CHO cells transiently transfected with human CD177; about 1 × 10^5 cells stained with 1 µg ml^−1 hNP or Con for 20 min at 4 °C; untransfected cells as control; only the binder purified
[2] = target: T2, murine CD177 on murine neutrophils (mouse (endogenous in neutrophils)); test: flow cytometry on cells; immune cells isolated from blood (human, pig, rat, mouse), 1 × 10^5 cells a well, free fluorescent peptide 1 µg ml^−1 for 20 min at 4 °C; human neutrophils co-stained with anti-CD177 monoclonal antibody; only the binder purified

binding [1]	binding [2]	Binder
binds	no binding (tested: 1 µg ml^−1)	DLVTSKLQVGGGC (carboxyfluorescein on the N-terminus; C-terminal cysteine with free sulfhydryl) [human neutrophil-specific peptide (hNP), free peptide]
no binding (tested: 1 µg ml^−1)	–	KQLSEMVTDGGGC (carboxyfluorescein on the N-terminus; C-terminal cysteine with free sulfhydryl) [randomized control peptide related to hNP]
